The structures appear in SMILES notation. The list shows a part of the results. The main result of the screen is listed elsewhere. These columns were measured beside it and carry no call. Compounds called inactive in the main read-out are mostly missing here. The note in brackets gives the kind of curve behind each potency; many fits are weak.

This test is described as follows: qHTS Assay for Lipid Storage Modulators in Drosophila S3 Cells.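 For cell number change: cells counted by Cell Tracker Red CMTPX staining in the red channel.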 The following applies: BODIPY lipid droplet fluorescence, 18-24 h; for cell number change: measured here: cell count max response, cells fed with added oleic acid. The procedure, abridged:
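Laser-scanning cytometry quantifies lipid droplet accumulation (500–530 nm total intensity; droplet/cell object ratio) in oleic acid-fed (400 uM added) Drosophila S3 cells treated with a concentration series. 20 uM Triacsin C defined 100% inhibition.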

The mark [1] stands for this setting: measured here: lipid fluorescence (Fed channel) AC50, cells fed with added oleic acid.
Where [2] appears, read: measured here: cell number channel AC50, cells fed with added oleic acid.

With `CCOC(=O)c1c(-c2ccc(OC)cc2)csc1NC(=O)CCN1CCOCC1`, the cell number change is -57.9%.
Same read-out and setting: the figure for `COc1cccc(CC(NC(C)=O)C(=O)NC2CCN(C(=O)c3ccc(Cl)cc3)CC2)c1OC` (stereo not given) is -15.4%.
For the compound `CCOc1cc(S(=O)(=O)N2CCC(C(N)=O)CC2)ccc1F`, the cell number change was -8.49%. The AC50 under setting [1] is 1.03 µM [falling, full curve, poor fit].
For the compound `C[C@H](NC(=O)c1ccco1)C(=O)N1CCCC1`, the cell number change amounted to 17.1%.
For the compound `O=C(NC1CCCC1)C1CCN(C(=O)c2ccc(Cl)cc2)CC1`, the cell number change amounted to 20.4%. The AC50 under setting [1] was 29.1 µM [falling, single point].
In the case of `Cc1ccc(NC(=O)CN(C)C(=O)c2ccc(Br)o2)cc1`, the cell number change was 29.8%.
Turning to `Cc1oc2c(CN3CCCC(C)C3)c(O)ccc2c(=O)c1-c1ccccc1` (stereo not given), the AC50 under setting [1] was 29.1 µM [rising, single point].
Take `CC(=Nc1ccccc1O)c1sc2ccccc2c1O`: the AC50 under setting [1] is 18.4 µM [falling, single point].
`O=c1[nH]c(NCCO)nc2c1C1(CCCCC1)Cc1ccccc1-2`: the cell number change is -64.1%. The AC50 under setting [2] was 29.1 µM [falling, single point]. For the same compound, the AC50 under setting [1] was 5.17 µM [falling, partial curve, poor fit].
Regarding `CCOC(=O)N1CCN(C(=O)c2cc(COc3cccc(C(F)(F)F)c3)on2)CC1`, the cell number change came to 25.6%. Besides, the AC50 under setting [2] is 7.31 µM [rising, partial curve, poor fit].
Regarding `Cc1nnc(NC(=O)/C=C/c2ccco2)s1`, the cell number change turned out to be 7.43%. The AC50 under setting [1] is 20.6 µM [falling, single point].
Regarding `NC1=NC(c2ccccc2)N=C(Nc2ccccc2)N1` (stereo not given), the cell number change came to 26.5%. Moreover, the AC50 under setting [2] is 0.092 µM [rising, full curve]. Also, under setting [1], the AC50 was 6.51 µM [falling, single point].
Take `Fc1cccc(Cl)c1CSC1=NCCS1`: the cell number change is 14.3%. For the same compound, the AC50 under setting [1] was 29.1 µM [rising, partial curve].
Take `CCOC(=O)CSc1nnc(Cc2ccc(OC)cc2)n1-c1ccccc1`: the cell number change is 33.3%. Further, the AC50 under setting [2] was 9.2 µM [rising, partial curve, poor fit].
Consider `Cc1ccc(C)c(C(=O)c2ccccc2NC(=O)c2ccccn2)c1`, for which the cell number change worked out at 8.4%. Moreover, the AC50 under setting [1] is 14.6 µM [rising, partial curve].
With `COCCn1c(=O)[nH]c(=O)c2cc(C(=O)c3cc(Cl)ccc3O)cnc21`, the AC50 is 0.103 µM [rising, full curve, poor fit] under setting [2] and 0.146 µM [rising, full curve, poor fit] under setting [1].
Turning to `CC(C(=O)NC1CCCCC1)N1C(=O)C2C3C=CC(C3)C2C1=O` (stereo not given), under setting [1], the AC50 was 0.082 µM [falling, full curve, poor fit].
For `CCOc1ccc(C(=O)NC(C(=O)NCCc2ccc(S(N)(=O)=O)cc2)C(C)C)cc1` (stereo not given), the cell number change is 14.8%.
